Data source: PubChem BioAssay AID1508588 (Peter MacCallum Cancer Centre, 2020)
Purpose: 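Genome-wide search for knock-downs that heighten vemurafenib action in melanoma cells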 (primary screen). System: human WM266.4 melanoma cells (BRAF V600 mutant). Reagent: siRNA pool against human genes, 40 nM. Timing: 96 h from transfection to read-out. Conditions: vemurafenib 300 nM (about IC25), added 48 h after transfection, for 48 h; comparison arm got DMSO vehicle only. Measured: 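Cell gain (DAPI nuclei at end minus before drug, mean of two replicates) and medium lactate by absorbance per cell, both as ratio to non-targeting siRNA, also grouped into fold-change classes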. Reading the numbers: cell gain with vemurafenib: higher = more cell gain than with non-targeting siRNA; lactate per cell with vemurafenib: higher = more lactate made per cell. Call rule: 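Enhancement is called by pairing each knock-down's vehicle-arm and drug-arm fold-change classes for viability or glycolysis; which class combinations qualify is not given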. Calls: active = enhances vemurafenib effect; inactive = no enhancement seen.
The whole screen tested about 18,000 reagents; below is a part drawn at random. 790 of them (4.4%) were called active. 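Calls rest on a combination of fold-change classes in drug and vehicle arms, not all shown here.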 A number with no mark means an inactive call. No sequences are given here.

TMEM25 — cell gain with vemurafenib: 0.59; lactate per cell with vemurafenib: 0.32
BTD — cell gain with vemurafenib: 0.7; lactate per cell with vemurafenib: 1.12
RGS8 — cell gain with vemurafenib: 0.5; lactate per cell with vemurafenib: 1.77
RIMBP2 — cell gain with vemurafenib: 1.07; lactate per cell with vemurafenib: 1.08
FRK — cell gain with vemurafenib: 0.7; lactate per cell with vemurafenib: 0.98
TBC1D9B — cell gain with vemurafenib: 0.39; lactate per cell with vemurafenib: 1.46
PRKG2 — cell gain with vemurafenib: 0.87; lactate per cell with vemurafenib: 0.7
THOP1 — cell gain with vemurafenib: 0.64; lactate per cell with vemurafenib: 0.7
TMA16 — cell gain with vemurafenib: 0.55; lactate per cell with vemurafenib: 0.52
OPLAH — cell gain with vemurafenib: 0.1; lactate per cell with vemurafenib: 1.56
NAP1L1 — cell gain with vemurafenib: 0.63; lactate per cell with vemurafenib: 0.78
SERPINB10 — cell gain with vemurafenib: 0.58; lactate per cell with vemurafenib: 1.66
KCNJ12 — cell gain with vemurafenib: 0.64; lactate per cell with vemurafenib: 1.64

Laid out differently: 4 of the entries above.
Target gene	cell gain with vemurafenib	lactate per cell with vemurafenib
PRKG2	0.87	0.7
THOP1	0.64	0.7
TMA16	0.55	0.52
OPLAH	0.1	1.56

The list goes on:
RARS1 — cell gain with vemurafenib: 0.33; lactate per cell with vemurafenib: 1.72
BLOC1S3 — cell gain with vemurafenib: 0.76; lactate per cell with vemurafenib: 1.03
PAGE2 — cell gain with vemurafenib: 0.52; lactate per cell with vemurafenib: 0.62
ZIK1 — cell gain with vemurafenib: 1.02; lactate per cell with vemurafenib: 0.6
SLU7 — cell gain with vemurafenib: 0.2; lactate per cell with vemurafenib: 0.88
ESPL1 — cell gain with vemurafenib: 0.21; lactate per cell with vemurafenib: 1.28
ZNF549 — cell gain with vemurafenib: 0.43; lactate per cell with vemurafenib: 0.44
KDSR — cell gain with vemurafenib: 1.05; lactate per cell with vemurafenib: 0.76
IPO9 — cell gain with vemurafenib: 0.54 (active); lactate per cell with vemurafenib: 0.32
SLC66A1 — cell gain with vemurafenib: 0.37 (active); lactate per cell with vemurafenib: 0.45
NUP107 — cell gain with vemurafenib: 0.32; lactate per cell with vemurafenib: 2.55
LAMP1 — cell gain with vemurafenib: 0.65; lactate per cell with vemurafenib: 0.76
CWF19L1 — cell gain with vemurafenib: 0.79; lactate per cell with vemurafenib: 0.8
SULT1C3 — cell gain with vemurafenib: 0.56; lactate per cell with vemurafenib: 0.73
UBTD1 — cell gain with vemurafenib: 0.6; lactate per cell with vemurafenib: 0.73
RELT — cell gain with vemurafenib: 0.33; lactate per cell with vemurafenib: 0.26
FURIN — cell gain with vemurafenib: 0.48; lactate per cell with vemurafenib: 1.86
TSHR — cell gain with vemurafenib: 1.04; lactate per cell with vemurafenib: 0.86
NMD3 — cell gain with vemurafenib: 1.15; lactate per cell with vemurafenib: 0.72
EIF4B — cell gain with vemurafenib: 0.37; lactate per cell with vemurafenib: 1.23
LBHD1 — cell gain with vemurafenib: 0.16; lactate per cell with vemurafenib: 2.31
NFATC4 — cell gain with vemurafenib: 0.86; lactate per cell with vemurafenib: 0.33
MRPL12 — cell gain with vemurafenib: 0.79; lactate per cell with vemurafenib: 1.04
CCDC70 — cell gain with vemurafenib: 0.71; lactate per cell with vemurafenib: 0.32
DHRS4L1 — cell gain with vemurafenib: 0.98; lactate per cell with vemurafenib: 0.94
CACNA1S — cell gain with vemurafenib: 0.88; lactate per cell with vemurafenib: 0.72
PSG5 — cell gain with vemurafenib: 0.6; lactate per cell with vemurafenib: 1.34
